From paper PMC4441479
No constants are given. Whether binding was seen depends on the method and setting. In cells and extracts the contact can be indirect. Here binding means that the protein was enriched with, or labelled near, the bait; the list need not be complete.

The chains behind the UniProt entries cited, without tags or fusion partners.
UniProt Q7Z2W4: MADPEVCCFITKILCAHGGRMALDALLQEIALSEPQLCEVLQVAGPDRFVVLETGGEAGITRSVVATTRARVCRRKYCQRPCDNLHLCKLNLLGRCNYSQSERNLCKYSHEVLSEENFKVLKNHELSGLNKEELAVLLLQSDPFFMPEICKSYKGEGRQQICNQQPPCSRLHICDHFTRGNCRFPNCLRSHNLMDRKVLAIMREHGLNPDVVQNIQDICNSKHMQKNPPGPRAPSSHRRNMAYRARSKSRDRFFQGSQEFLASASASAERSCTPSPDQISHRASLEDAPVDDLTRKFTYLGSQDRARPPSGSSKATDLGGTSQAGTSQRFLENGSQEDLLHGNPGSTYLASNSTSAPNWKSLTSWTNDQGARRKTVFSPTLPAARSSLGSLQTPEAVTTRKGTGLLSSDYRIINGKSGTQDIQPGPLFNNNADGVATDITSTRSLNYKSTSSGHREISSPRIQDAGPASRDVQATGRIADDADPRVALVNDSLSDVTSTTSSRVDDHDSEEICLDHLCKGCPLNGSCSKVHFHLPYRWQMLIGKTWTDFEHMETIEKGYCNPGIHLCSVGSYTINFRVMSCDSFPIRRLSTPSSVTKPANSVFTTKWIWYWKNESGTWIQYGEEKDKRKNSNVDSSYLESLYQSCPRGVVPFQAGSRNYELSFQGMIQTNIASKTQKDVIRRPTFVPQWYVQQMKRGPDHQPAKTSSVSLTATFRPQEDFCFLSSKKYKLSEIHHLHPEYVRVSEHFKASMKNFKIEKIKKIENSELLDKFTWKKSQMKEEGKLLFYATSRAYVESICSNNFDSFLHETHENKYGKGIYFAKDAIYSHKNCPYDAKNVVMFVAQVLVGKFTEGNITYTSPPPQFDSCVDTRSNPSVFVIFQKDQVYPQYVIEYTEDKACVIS

Target: ZAP-L-FL (FLAG-tagged ZAP-L) (human) (UniProt Q7Z2W4)
Test: affinity purification with mass spectrometry; ZAP-L-FL or empty vector transfected in 293T; IP with α-FLAG agarose from whole cell lysates (sonication) in the presence or absence of 30 μg/ml RNase; tandem MS; hits: 3 or more peptides, two replicate IPs, not in vector control

B1: General transcription factor IIIC, polypeptide 3, 102kDa (protein, UniProt Q9Y5Q9-1 1-886)
chain: MSGFSPELIDYLEGKISFEEFERRREERKTREKKSLQEKGKLSAEENPDDSEVPSSSGINSTKSQDKDVNEGETSDGVRKSVHKVFASMLGENEDDEEEEEEEEEEEEEEETPEQPTAGDVFVLEMVLNRETKKMMKEKRPRSKLPRALRGLMGEANIRFARGEREEAILMCMEIIRQAPLAYEPFSTLAMIYEDQGDMEKSLQFELIAAHLNPSDTEEWVRLAEMSLEQDNIKQAIFCYTKALKYEPTNVRYLWERSSLYEQMGDHKMAMDGYRRILNLLSPSDGERFMQLARDMAKSYYEANDVTSAINIIDEAFSKHQGLVSMEDVNIAAELYISNKQYDKALEIITDFSGIVLEKKTSEEGTSEENKAPENVTCTIPDGVPIDITVKLMVCLVHLNILEPLNPLLTTLVEQNPEDMGDLYLDVAEAFLDVGEYNSALPLLSALVCSERYNLAVVWLRHAECLKALGYMERAAESYGKVVDLAPLHLDARISLSTLQQQLGQPEKALEALEPMYDPDTLAQDANAAQQELKLLLHRSTLLFSQGKMYGYVDTLLTMLAMLLKVAMNRAQVCLISSSKSGERHLYLIKVSRDKISDSNDQESANCDAKAIFAVLTSVLTKDDWWNLLLKAIYSLCDLSRFQEAELLVDSSLEYYSFYDDRQKRKELEYFGLSAAILDKNFRKAYNYIRIMVMENVNKPQLWNIFNQVTMHSQDVRHHRFCLRLMLKNPENHALCVLNGHNAFVSGSFKHALGQYVQAFRTHPDEPLYSFCIGLTFIHMASQKYVLRRHALIVQGFSFLNRYLSLRGPCQESFYNLGRGLHQLGLIHLAIHYYQKALELPPLVVEGIELDQLDLRRDIAYNLSLIYQSSGNTGMAQTLLYTYCSI
For B1, the binding was “binds”.

B2: Pyrroline-5-carboxylate reductase-like (protein, UniProt Q53H96-1 1-274)
chain: MAAAEPSPRRVGFVGAGRMAGAIAQGLIRAGKVEAQHILASAPTDRNLCHFQALGCRTTHSNQEVLQSCLLVIFATKPHVLPAVLAEVAPVVTTEHILVSVAAGVSLSTLEELLPPNTRVLRVLPNLPCVVQEGAIVMARGRHVGSSETKLLQHLLEACGRCEEVPEAYVDIHTGLSGSGVAFVCAFSEALAEGAVKMGMPSSLAHRIAAQTLLGTAKMLLHEGQHPAQLRSDVCTPGGTTIYGLHALEQGGLRAATMSAVEAATCRAKELSRK
For B2, the binding was “binds”.

B3: RNA binding motif protein 14 (protein, UniProt Q96PK6-1 1-669)
chain: MKIFVGNVDGADTTPEELAALFAPYGTVMSCAVMKQFAFVHMRENAGALRAIEALHGHELRPGRALVVEMSRPRPLNTWKIFVGNVSAACTSQELRSLFERRGRVIECDVVKDYAFVHMEKEADAKAAIAQLNGKEVKGKRINVELSTKGQKKGPGLAVQSGDKTKKPGAGDTAFPGTGGFSATFDYQQAFGNSTGGFDGQARQPTPPFFGRDRSPLRRSPPRASYVAPLTAQPATYRAQPSVSLGAAYRAQPSASLGVGYRTQPMTAQAASYRAQPSVSLGAPYRGQLASPSSQSAAASSLGPYGGAQPSASALSSYGGQAAAASSLNSYGAQGSSLASYGNQPSSYGAQAASSYGVRAAASSYNTQGAASSLGSYGAQAASYGAQSAASSLAYGAQAASYNAQPSASYNAQSAPYAAQQAASYSSQPAAYVAQPATAAAYASQPAAYAAQATTPMAGSYGAQPVVQTQLNSYGAQASMGLSGSYGAQSAAAATGSYGAAAAYGAQPSATLAAPYRTQSSASLAASYAAQQHPQAAASYRGQPGNAYDGAGQPSAAYLSMSQGAVANANSTPPPYERTRLSPPRASYDDPYKKAVAMSKRYGSDRRLAELSDYRRLSESQLSFRRSPTKSSLDYRRLPDAHSDYARYSGSYNDYLRAAQMHSGYQRRM
In the case of B3, the binding is reported as “binds”.
